Test results taken from PMC10866661.
No constants are given. Whether binding was seen depends on the method and setting. In cells and extracts the contact can be indirect. Some binding calls cover weakened binding; strength is not graded here. Sequences can lack the tags named with a protein.

Tests used:
[1] = target: T1, FLAG-tagged COPA p.D243G (WD40 domain mutant) (human) (UniProt P53621); test: co-IP; HEK293T cells cotransfected with FLAG-tagged WT or mutant COPA, COPB2 and COPE; whole-cell extract 48 h after transfection incubated overnight with anti-DDK (FLAG) antibody, Protein G magnetic beads, washes with PBS 0.1% Tween-20; immunoblot of eluate and input for FLAG, COPB2 and COPE
T1 sequence: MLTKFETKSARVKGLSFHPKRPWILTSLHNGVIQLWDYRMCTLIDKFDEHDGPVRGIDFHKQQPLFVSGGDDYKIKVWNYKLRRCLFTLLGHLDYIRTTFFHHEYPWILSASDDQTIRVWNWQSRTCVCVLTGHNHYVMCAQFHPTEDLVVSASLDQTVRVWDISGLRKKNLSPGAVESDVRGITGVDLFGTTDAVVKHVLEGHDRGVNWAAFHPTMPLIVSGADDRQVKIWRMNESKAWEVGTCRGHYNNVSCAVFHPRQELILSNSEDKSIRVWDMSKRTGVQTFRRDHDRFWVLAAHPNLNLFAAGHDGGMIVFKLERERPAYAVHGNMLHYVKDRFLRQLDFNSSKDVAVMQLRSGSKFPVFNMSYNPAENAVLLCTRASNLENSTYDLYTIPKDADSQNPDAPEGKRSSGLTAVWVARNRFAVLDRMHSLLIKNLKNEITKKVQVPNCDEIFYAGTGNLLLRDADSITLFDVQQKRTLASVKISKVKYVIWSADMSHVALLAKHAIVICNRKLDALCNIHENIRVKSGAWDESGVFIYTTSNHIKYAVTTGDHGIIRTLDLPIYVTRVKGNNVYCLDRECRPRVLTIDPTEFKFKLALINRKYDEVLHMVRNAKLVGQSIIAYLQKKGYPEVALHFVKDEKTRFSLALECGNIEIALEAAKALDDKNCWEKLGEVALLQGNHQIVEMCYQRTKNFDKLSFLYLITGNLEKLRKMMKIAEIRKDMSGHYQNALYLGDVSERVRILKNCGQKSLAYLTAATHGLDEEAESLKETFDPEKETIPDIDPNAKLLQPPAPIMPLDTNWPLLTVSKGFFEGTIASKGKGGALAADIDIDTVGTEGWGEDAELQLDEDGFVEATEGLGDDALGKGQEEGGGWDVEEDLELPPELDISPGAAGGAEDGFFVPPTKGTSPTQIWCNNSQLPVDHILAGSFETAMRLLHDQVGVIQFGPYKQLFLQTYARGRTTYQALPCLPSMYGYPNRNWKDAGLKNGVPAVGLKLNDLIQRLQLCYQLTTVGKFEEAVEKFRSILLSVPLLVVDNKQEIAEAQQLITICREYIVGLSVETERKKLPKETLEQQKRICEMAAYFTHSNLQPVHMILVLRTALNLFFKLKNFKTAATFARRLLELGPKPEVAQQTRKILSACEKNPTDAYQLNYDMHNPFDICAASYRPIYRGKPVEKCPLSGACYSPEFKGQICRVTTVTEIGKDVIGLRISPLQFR

[2] = target: T2, FLAG-tagged COPA p.R1058C (C-terminal domain mutant) (human) (UniProt P53621); test: as above
T2 sequence: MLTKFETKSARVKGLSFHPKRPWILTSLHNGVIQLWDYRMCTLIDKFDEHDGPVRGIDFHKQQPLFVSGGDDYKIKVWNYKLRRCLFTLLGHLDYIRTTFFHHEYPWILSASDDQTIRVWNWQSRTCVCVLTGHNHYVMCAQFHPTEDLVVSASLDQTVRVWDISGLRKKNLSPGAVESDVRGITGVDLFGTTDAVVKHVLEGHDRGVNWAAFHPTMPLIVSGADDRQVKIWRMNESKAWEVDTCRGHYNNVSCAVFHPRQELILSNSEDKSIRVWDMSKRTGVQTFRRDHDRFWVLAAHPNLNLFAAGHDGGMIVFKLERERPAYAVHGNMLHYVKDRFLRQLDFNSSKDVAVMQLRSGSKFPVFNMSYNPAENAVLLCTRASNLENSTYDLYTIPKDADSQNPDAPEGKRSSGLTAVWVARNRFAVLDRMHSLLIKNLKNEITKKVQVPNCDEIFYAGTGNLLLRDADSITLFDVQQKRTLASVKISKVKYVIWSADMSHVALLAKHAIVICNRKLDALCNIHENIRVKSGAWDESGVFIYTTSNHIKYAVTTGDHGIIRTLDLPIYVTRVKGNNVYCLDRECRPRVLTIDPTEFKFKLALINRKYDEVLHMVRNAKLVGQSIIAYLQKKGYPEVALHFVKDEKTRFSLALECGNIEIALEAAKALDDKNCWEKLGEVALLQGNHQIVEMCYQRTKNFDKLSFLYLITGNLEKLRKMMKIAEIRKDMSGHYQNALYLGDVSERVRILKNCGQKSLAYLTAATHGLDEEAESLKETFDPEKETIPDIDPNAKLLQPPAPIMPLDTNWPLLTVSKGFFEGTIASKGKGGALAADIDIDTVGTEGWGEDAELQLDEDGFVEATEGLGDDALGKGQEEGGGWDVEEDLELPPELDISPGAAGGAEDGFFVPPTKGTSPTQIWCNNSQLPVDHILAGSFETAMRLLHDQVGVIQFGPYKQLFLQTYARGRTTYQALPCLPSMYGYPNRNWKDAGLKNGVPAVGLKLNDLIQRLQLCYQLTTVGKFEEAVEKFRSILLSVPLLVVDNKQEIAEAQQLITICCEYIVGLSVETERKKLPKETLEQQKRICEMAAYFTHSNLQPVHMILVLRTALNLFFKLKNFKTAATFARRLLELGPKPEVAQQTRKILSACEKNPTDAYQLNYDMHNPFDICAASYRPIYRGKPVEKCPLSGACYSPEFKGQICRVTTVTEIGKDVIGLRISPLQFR

B1: COPB2 (protein, UniProt P35606 1-906)
chain: MPLRLDIKRKLTARSDRVKSVDLHPTEPWMLASLYNGSVCVWNHETQTLVKTFEVCDLPVRAAKFVARKNWVVTGADDMQIRVFNYNTLERVHMFEAHSDYIRCIAVHPTQPFILTSSDDMLIKLWDWDKKWSCSQVFEGHTHYVMQIVINPKDNNQFASASLDRTIKVWQLGSSSPNFTLEGHEKGVNCIDYYSGGDKPYLISGADDRLVKIWDYQNKTCVQTLEGHAQNVSCASFHPELPIIITGSEDGTVRIWHSSTYRLESTLNYGMERVWCVASLRGSNNVALGYDEGSIIVKLGREEPAMSMDANGKIIWAKHSEVQQANLKAMGDAEIKDGERLPLAVKDMGSCEIYPQTIQHNPNGRFVVVCGDGEYIIYTAMALRNKSFGSAQEFAWAHDSSEYAIRESNSIVKIFKNFKEKKSFKPDFGAESIYGGFLLGVRSVNGLAFYDWDNTELIRRIEIQPKHIFWSDSGELVCIATEESFFILKYLSEKVLAAQETHEGVTEDGIEDAFEVLGEIQEIVKTGLWVGDCFIYTSSVNRLNYYVGGEIVTIAHLDRTMYLLGYIPKDNRLYLGDKELNIISYSLLVSVLEYQTAVMRRDFSMADKVLPTIPKEQRTRVAHFLEKQGFKQQALTVSTDPEHRFELALQLGELKIAYQLAVEAESEQKWKQLAELAISKCQFGLAQECLHHAQDYGGLLLLATASGNANMVNKLAEGAERDGKNNVAFMSYFLQGKVDACLELLIRTGRLPEAAFLARTYLPSQVSRVVKLWRENLSKVNQKAAESLADPTEYENLFPGLKEAFVVEEWVKETHADLWPAKQYPLVTPNEERNVMEEGKDFQPSRSTAQQELDGKPASPTPVIVASHTANKEEKSLLELEVDLDNLELEDIDTTDINLDEDILDD
binding [1]: binds | binding [2]: binds
